Experimental data taken from article doi:10.1101/2021.12.22.473884.
Read-outs that look alike come from different tables or passages of the source. These are yes or no findings as the source states them, for the method shown. Binding seen in cells or lysates may run through a third protein. Some results given as binding are weak or reduced against the parent protein; the word gives no strength. For part of these data: Where a sequence is shown, tags or fusion partners need not be part of it.

The chains behind the UniProt entries cited, without tags or fusion partners. Where a name states a change or a piece, a line headed by the entry shows the natural chain unless it says otherwise.
UniProt Q9NQG6, whole entry: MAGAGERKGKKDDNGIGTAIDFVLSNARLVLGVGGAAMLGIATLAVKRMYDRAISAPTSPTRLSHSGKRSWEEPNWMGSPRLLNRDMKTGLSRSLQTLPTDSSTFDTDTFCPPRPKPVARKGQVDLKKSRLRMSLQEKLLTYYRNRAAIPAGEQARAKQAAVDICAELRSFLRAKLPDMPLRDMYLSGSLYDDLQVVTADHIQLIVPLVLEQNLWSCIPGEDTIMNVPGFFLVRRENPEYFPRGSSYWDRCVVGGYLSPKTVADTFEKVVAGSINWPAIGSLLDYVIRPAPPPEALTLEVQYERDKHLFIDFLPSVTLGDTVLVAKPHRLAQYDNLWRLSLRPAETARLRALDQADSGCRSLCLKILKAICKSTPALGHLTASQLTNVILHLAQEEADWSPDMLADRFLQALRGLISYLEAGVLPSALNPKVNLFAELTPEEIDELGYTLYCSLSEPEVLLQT

Assays:
[1] = biological target: T1, GST-PI31 (UniProt Q92530); test: pull-down
T1 sequence: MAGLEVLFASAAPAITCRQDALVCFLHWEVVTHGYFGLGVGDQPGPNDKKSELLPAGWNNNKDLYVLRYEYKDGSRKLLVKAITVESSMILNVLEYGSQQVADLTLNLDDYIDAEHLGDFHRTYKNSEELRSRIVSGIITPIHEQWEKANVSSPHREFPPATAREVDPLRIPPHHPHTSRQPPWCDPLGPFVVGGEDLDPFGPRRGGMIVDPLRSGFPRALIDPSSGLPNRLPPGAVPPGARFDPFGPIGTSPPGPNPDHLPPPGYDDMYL

[2] = biological target: T2, Flag-Fbxo7 WT (human) (UniProt Q9Y3I1); test: co-IP
T2 sequence: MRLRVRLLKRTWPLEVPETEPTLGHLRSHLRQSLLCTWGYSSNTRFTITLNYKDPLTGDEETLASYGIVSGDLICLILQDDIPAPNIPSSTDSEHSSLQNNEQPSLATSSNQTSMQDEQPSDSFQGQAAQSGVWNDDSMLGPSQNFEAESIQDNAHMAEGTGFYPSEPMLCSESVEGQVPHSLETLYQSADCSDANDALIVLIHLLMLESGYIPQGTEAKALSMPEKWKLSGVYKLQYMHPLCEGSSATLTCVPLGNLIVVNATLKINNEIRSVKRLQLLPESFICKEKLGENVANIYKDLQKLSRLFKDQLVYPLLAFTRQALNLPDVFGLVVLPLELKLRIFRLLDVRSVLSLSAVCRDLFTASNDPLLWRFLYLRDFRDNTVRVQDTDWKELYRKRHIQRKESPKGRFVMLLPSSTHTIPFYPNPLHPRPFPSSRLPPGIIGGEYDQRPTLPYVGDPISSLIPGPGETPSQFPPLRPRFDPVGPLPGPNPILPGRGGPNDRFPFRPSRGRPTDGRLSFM

[3] = biological target: T3, FLAG-Fbxo7 (aa169-398) (human) (UniProt Q9Y3I1); test: co-IP
T3 sequence: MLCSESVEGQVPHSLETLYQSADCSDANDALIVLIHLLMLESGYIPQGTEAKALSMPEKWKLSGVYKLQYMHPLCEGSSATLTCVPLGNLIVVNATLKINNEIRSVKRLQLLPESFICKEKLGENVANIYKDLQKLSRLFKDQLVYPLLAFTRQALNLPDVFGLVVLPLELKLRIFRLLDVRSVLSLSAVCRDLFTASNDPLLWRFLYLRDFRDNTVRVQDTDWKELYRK

[4] = biological target: T4, Fbxo7 R498X (human) (UniProt Q9Y3I1); test: co-IP
T4 sequence: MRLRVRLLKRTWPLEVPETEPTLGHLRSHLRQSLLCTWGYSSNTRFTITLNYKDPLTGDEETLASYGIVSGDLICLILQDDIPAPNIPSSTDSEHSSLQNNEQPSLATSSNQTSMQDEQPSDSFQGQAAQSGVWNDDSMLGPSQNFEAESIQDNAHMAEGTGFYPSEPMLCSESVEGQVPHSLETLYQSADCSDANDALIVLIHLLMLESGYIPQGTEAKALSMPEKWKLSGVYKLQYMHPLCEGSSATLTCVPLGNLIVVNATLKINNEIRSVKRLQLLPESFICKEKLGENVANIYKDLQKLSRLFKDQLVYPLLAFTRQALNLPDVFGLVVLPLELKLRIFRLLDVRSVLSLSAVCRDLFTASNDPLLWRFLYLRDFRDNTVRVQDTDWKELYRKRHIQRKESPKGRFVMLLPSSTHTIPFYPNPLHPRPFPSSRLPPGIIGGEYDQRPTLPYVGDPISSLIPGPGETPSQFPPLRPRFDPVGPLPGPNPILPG

[5] = biological target: T5, Fbxo7 T22M (human) (UniProt Q9Y3I1); test: co-IP
T5 sequence: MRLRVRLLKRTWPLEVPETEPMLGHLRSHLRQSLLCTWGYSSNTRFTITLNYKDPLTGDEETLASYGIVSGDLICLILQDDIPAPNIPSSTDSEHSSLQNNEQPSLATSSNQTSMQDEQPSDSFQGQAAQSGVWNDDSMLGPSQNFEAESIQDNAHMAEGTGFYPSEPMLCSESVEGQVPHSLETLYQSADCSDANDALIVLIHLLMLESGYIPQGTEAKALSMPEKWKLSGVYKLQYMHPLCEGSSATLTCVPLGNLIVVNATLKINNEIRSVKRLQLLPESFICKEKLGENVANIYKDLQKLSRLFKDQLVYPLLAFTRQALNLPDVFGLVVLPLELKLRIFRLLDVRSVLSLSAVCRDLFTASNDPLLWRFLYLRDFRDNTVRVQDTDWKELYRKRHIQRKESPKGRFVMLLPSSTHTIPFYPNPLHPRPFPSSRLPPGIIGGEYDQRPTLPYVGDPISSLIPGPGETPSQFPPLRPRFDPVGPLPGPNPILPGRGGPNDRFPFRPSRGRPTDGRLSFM

[6] = biological target: T6, Fbxo7 R378G (human) (UniProt Q9Y3I1); test: co-IP
T6 sequence: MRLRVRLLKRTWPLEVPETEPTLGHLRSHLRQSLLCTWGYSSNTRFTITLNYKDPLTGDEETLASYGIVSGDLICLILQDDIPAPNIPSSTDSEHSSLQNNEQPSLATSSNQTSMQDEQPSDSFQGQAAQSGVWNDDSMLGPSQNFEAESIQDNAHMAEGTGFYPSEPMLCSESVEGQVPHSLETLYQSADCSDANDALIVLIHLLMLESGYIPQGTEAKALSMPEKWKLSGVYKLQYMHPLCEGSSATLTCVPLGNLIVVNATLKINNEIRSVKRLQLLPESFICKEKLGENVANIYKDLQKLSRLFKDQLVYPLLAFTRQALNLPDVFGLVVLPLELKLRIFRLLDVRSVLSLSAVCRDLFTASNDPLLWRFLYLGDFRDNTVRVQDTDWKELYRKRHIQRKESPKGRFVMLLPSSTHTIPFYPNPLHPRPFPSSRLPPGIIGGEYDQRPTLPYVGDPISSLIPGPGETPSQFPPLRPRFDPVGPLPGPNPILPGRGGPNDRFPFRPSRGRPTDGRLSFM

[7] = biological target: T7, Flag-Fbxo7 L250P (human) (UniProt Q9Y3I1); test: co-IP
T7 sequence: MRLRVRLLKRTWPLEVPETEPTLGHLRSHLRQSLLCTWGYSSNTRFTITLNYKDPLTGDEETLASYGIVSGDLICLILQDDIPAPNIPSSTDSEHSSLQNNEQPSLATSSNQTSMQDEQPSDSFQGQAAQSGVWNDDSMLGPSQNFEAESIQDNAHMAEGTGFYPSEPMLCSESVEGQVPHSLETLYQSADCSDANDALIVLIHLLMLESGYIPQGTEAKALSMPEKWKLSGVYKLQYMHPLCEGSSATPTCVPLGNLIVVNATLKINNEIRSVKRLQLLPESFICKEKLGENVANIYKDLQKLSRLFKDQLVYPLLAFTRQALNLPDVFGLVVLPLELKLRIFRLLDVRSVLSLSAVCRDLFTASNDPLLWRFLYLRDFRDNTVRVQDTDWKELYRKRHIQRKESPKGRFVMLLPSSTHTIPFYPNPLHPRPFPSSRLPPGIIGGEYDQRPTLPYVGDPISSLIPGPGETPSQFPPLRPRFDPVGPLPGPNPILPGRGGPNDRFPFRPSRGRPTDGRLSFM

[8] = biological target: T1, GST-PI31; test: pull-down; remark: listed apart in the source
[9] = biological target: T2, Flag-Fbxo7 WT (human); test: co-IP; remark: listed apart in the source
[10] = biological target: T7, Flag-Fbxo7 L250P (human); test: co-IP; remark: listed apart in the source

Question: For “MiD51 made using reticulocyte lysates (from UniProt Q9NQG6 1-463)”, which binding [1] is on record?
Answer: The binding was “binds”.

Question: What does the source list for MiD51-Myc (from UniProt Q9NQG6 1-463)?
Answer: binding [2]: binds; binding [3]: binds; binding [4]: binds; binding [5]: binds; binding [6]: binds; binding [7]: binds

B1: MiD49 made using reticulocyte lysates (protein, UniProt Q96C03 1-454)
chain: MAEFSQKRGKRRSDEGLGSMVDFLLANARLVLGVGGAAVLGIATLAVKRFIDRATSPRDEDDTKADSWKELSLLKATPHLQPRPPPAALSQPVLPLAPSSSAPEGPAETDPEVTPQLSSPAPLCLTLQERLLAFERDRVTIPAAQVALAKQLAGDIALELQAYFRSKFPELPFGAFVPGGPLYDGLQAGAADHVRLLVPLVLEPGLWSLVPGVDTVARDPRCWAVRRTQLEFCPRGSSPWDRFLVGGYLSSRVLLELLRKALAASVNWPAIGSLLGCLIRPSMASEELLLEVQHERLELTVAVLVAVPGVDADDRLLLAWPLEGLAGNLWLQDLYPVEAARLRALDDHDAGTRRRLLLLLCAVCRGCSALGQLGRGHLTQVVLRLGEDNVDWTEEALGERFLQALELLIGSLEQASLPCHFNPSVNLFSSLREEEIDDIGYALYSGLQEPEGLL
Question: B1 was tested. Which binding [8] did it give?
Answer: The binding was “binds”.

B2: Flag-Fbxo7 WT (protein, UniProt Q9Y3I1-1 1-522)
chain: MRLRVRLLKRTWPLEVPETEPTLGHLRSHLRQSLLCTWGYSSNTRFTITLNYKDPLTGDEETLASYGIVSGDLICLILQDDIPAPNIPSSTDSEHSSLQNNEQPSLATSSNQTSMQDEQPSDSFQGQAAQSGVWNDDSMLGPSQNFEAESIQDNAHMAEGTGFYPSEPMLCSESVEGQVPHSLETLYQSADCSDANDALIVLIHLLMLESGYIPQGTEAKALSMPEKWKLSGVYKLQYMHPLCEGSSATLTCVPLGNLIVVNATLKINNEIRSVKRLQLLPESFICKEKLGENVANIYKDLQKLSRLFKDQLVYPLLAFTRQALNLPDVFGLVVLPLELKLRIFRLLDVRSVLSLSAVCRDLFTASNDPLLWRFLYLRDFRDNTVRVQDTDWKELYRKRHIQRKESPKGRFVMLLPSSTHTIPFYPNPLHPRPFPSSRLPPGIIGGEYDQRPTLPYVGDPISSLIPGPGETPSQFPPLRPRFDPVGPLPGPNPILPGRGGPNDRFPFRPSRGRPTDGRLSFM
Question: Which results are given for B2?
Answer: binding [9]: binds; binding [10]: binds

B3: Flag-Fbxo7 L250P (protein, UniProt Q9Y3I1-1 1-522)
chain: MRLRVRLLKRTWPLEVPETEPTLGHLRSHLRQSLLCTWGYSSNTRFTITLNYKDPLTGDEETLASYGIVSGDLICLILQDDIPAPNIPSSTDSEHSSLQNNEQPSLATSSNQTSMQDEQPSDSFQGQAAQSGVWNDDSMLGPSQNFEAESIQDNAHMAEGTGFYPSEPMLCSESVEGQVPHSLETLYQSADCSDANDALIVLIHLLMLESGYIPQGTEAKALSMPEKWKLSGVYKLQYMHPLCEGSSATPTCVPLGNLIVVNATLKINNEIRSVKRLQLLPESFICKEKLGENVANIYKDLQKLSRLFKDQLVYPLLAFTRQALNLPDVFGLVVLPLELKLRIFRLLDVRSVLSLSAVCRDLFTASNDPLLWRFLYLRDFRDNTVRVQDTDWKELYRKRHIQRKESPKGRFVMLLPSSTHTIPFYPNPLHPRPFPSSRLPPGIIGGEYDQRPTLPYVGDPISSLIPGPGETPSQFPPLRPRFDPVGPLPGPNPILPGRGGPNDRFPFRPSRGRPTDGRLSFM
Question: What does the source list for B3?
Answer: binding [9]: binds; binding [10]: binds
